Measured values: the supplement of paper PMC12819154, “High-throughput peptide-centric local stability assay extends protein–ligand identification to membrane proteins, tissues and bacteria” (Nature Structural & Molecular Biology, 2025)
Some of the results follow. Most values lie at the level of the controls, where differences are scatter.

Chains of the proteins cited; added tags and fusions are not shown. Lines headed by an entry give the natural chain unless they say otherwise; changes in a name come on top.
UniProt P29992, whole entry: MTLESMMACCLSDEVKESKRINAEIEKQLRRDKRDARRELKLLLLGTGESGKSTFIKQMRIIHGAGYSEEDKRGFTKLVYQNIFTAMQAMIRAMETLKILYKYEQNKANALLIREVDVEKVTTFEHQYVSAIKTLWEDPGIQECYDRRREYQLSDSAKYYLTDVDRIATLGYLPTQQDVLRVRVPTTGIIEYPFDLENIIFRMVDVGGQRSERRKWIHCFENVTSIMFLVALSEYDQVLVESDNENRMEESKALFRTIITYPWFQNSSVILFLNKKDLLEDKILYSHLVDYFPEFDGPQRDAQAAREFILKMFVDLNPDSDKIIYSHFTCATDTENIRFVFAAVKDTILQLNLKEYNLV
UniProt P30086: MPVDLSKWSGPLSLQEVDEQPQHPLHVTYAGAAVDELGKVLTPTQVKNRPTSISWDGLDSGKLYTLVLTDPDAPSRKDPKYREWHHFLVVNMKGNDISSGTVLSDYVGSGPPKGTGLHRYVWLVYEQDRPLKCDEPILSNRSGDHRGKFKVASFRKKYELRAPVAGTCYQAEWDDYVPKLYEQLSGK
UniProt P38936, whole entry: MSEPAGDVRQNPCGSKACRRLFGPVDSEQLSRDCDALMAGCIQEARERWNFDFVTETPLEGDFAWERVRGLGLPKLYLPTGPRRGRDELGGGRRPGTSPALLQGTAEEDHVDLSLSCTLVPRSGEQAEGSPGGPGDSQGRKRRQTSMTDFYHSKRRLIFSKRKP
UniProt P29401: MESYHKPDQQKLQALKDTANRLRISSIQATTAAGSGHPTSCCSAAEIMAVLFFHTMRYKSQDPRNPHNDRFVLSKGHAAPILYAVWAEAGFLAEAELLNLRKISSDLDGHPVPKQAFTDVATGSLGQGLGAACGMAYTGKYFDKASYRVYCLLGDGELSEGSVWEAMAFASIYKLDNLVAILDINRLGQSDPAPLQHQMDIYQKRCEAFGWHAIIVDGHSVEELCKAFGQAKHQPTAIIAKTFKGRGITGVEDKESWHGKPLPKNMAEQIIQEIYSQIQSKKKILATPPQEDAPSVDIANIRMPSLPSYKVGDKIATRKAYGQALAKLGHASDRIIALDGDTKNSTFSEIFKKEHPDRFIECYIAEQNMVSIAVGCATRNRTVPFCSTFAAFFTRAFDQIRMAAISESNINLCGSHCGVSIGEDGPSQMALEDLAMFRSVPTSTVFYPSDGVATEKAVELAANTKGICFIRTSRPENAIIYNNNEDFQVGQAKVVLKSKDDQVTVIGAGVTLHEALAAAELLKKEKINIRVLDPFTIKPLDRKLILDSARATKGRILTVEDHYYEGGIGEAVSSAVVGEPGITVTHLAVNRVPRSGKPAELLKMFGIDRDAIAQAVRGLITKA
UniProt P41134: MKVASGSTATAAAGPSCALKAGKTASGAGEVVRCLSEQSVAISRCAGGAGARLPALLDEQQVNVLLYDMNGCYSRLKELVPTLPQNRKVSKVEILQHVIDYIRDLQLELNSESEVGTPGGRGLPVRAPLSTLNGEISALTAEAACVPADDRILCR
UniProt P37198: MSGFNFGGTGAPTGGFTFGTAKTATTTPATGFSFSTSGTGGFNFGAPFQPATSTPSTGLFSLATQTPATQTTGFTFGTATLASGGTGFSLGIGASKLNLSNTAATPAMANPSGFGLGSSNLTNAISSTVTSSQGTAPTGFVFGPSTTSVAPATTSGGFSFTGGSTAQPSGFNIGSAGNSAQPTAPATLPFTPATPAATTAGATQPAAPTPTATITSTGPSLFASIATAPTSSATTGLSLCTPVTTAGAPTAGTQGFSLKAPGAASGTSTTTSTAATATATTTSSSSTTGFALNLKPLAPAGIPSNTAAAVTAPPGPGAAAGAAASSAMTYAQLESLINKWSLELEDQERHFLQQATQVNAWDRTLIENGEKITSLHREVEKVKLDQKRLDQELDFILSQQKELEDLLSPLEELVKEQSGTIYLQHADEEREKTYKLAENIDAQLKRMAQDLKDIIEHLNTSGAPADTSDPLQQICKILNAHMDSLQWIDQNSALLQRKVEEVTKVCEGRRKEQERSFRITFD
UniProt P30260, whole entry: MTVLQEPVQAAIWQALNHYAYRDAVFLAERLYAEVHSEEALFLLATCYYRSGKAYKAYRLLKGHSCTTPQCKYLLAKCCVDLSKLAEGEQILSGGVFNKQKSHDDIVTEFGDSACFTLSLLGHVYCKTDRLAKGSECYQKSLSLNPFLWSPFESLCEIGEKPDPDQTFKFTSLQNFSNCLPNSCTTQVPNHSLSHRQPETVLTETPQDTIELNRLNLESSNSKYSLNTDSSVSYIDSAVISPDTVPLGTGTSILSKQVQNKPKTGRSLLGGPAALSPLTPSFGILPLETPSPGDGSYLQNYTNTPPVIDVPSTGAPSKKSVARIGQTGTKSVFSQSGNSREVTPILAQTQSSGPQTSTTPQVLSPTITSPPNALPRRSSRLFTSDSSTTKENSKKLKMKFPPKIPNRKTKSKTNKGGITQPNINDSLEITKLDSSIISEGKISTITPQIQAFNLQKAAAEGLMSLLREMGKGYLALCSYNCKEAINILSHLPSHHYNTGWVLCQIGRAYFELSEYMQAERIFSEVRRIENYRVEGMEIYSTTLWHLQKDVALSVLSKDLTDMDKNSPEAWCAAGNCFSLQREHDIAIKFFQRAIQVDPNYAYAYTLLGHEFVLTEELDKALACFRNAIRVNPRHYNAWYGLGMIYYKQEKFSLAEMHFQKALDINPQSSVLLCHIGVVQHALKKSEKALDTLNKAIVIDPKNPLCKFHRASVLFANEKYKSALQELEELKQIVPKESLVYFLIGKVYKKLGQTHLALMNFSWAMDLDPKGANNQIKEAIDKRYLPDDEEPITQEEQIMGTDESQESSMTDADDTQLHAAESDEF
UniProt P35611: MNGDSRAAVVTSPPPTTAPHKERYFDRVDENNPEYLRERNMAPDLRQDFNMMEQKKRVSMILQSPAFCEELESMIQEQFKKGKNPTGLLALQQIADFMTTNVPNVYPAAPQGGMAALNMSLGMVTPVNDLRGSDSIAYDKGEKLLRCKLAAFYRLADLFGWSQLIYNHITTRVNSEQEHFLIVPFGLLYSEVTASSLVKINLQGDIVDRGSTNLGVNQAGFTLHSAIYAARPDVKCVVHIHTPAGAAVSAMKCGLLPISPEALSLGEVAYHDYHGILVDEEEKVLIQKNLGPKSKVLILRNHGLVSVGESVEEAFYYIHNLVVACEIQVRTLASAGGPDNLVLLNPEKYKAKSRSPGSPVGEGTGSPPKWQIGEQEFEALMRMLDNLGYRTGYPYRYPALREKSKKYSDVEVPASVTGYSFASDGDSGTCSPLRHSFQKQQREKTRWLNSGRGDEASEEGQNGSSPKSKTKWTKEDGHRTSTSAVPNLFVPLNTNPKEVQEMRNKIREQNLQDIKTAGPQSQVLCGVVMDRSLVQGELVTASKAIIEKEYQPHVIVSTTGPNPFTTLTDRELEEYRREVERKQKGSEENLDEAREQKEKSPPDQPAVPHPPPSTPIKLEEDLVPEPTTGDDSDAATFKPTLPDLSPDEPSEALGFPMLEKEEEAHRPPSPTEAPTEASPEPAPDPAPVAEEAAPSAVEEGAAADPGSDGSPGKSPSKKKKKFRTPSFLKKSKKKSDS

compound: Cc1nc(Nc2ncc(C(=O)Nc3c(C)cccc3Cl)s2)cc(N2CCN(CCO)CC2)n1 [dasatinib]; assay: log2 fold change of tryptic peptide abundance, ligand vs vehicle (limited proteolysis) (log2 ratio); higher = more trypsin-susceptible (destabilized); settings: ligand concentration: 5 uM; sample: K562 cleared lysate

Target	log2 fold change
GNA11 (peptide sequence: MVDVGGQR, peptide start residue: 225) (UniProt P29992)	0.176
PEBP1 (peptide sequence: CDEPILSNR, peptide start residue: 133) (UniProt P30086)	-0.371
UniProt P38936 (peptide sequence: LYLPTGPR, peptide start residue: 76)	-0.422
TKT (peptide sequence: MPSLPSYK, peptide start residue: 303) (UniProt P29401)	0.177
ID1 (peptide sequence: CLSEQSVAISR, peptide start residue: 34) (UniProt P41134)	0.15
NUP62 (peptide sequence: RLDQELDFILSQQK, peptide start residue: 388) (UniProt P37198)	-0.0773
CDC27 (peptide sequence: SALQELEELKQIVPK, peptide start residue: 721) (UniProt P30260)	-0.565
ADD1 (peptide sequence: QKGSEENLDEAR, peptide start residue: 583) (UniProt P35611)	0.18
